{"source": "patent US10624948B2", "about": "(Xigen Inflammation Ltd., priority 2013, dated 2020)", "experiment": "peptide synthesis", "settings": "whole synthesis", "note": "End groups of sequences in plain letters are not given here."}
{"sequence": "DQSRPVQPFLNLTTPRKPRPPRRRQRRKKRG", "values": [{"measurement": "final purity (method not given)", "value": 95.28, "unit": "%"}]}
